Experimental data from the supplement of paper PMC4604168 (melanoma cell lines).
The list shows a part of the results. Repeats are few or missing, and single values can be far off.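 The apoptosis fraction was the count of cleaved-PARP antibody-stained nuclei relative to all DNA-stained nuclei, imaged in 1,536-well plates. Screening doses were set so most cells survived, and baseline and induced cleaved-PARP levels vary greatly across cell lines.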

Legend:
Test in all cases: cleaved PARP positive nuclei fraction relative to DMSO control; melanoma cells; higher = more apoptosis
Conditions in all cases: library dose: low library concentration; 72 h
CBRC034 = tested on: CBRC034 (line from a melanoma biopsy)
COLO792 = tested on: COLO792
COLO800 = tested on: COLO800
COLO829 = tested on: COLO829
G361 = tested on: G361
IPC-298 = tested on: IPC-298
IST-MEL1 = tested on: IST-MEL1
LB2518-MEL = tested on: LB2518-MEL
LOXIMVI = tested on: LOXIMVI
MEL-HO = tested on: MEL-HO

Structure (SMILES) | cleaved PARP positive nuclei fraction (CBRC034) [%] | cleaved PARP positive nuclei fraction (COLO792) [%] | cleaved PARP positive nuclei fraction (COLO800) [%] | cleaved PARP positive nuclei fraction (COLO829) [%] | cleaved PARP positive nuclei fraction (G361) [%] | cleaved PARP positive nuclei fraction (IPC-298) [%] | cleaved PARP positive nuclei fraction (IST-MEL1) [%] | cleaved PARP positive nuclei fraction (LB2518-MEL) [%] | cleaved PARP positive nuclei fraction (LOXIMVI) [%] | cleaved PARP positive nuclei fraction (MEL-HO) [%]
CN(c1ncccc1CNc1nc(Nc2ccc3c(c2)CC(=O)N3)ncc1C(F)(F)F)S(C)(=O)=O + N.N.[Cl][Pt][Cl] [cisplatin] (first compound 0.08 µM, partner dose 1.6 µM) | 140 | 159 | 72.3 | 317 | 89.9 | 119 | 128 | 24.7 | 31.6 | 138
Cn1cc(C2=C(c3cn(C4CCN(Cc5ccccn5)CC4)c4ccccc34)C(=O)NC2=O)c2ccccc21 [Enzastaurin] + COc1ccc(C2=N[C@@H](c3ccc(Cl)cc3)[C@@H](c3ccc(Cl)cc3)N2C(=O)N2CCNC(=O)C2)c(OC(C)C)c1 [Nutlin-3] (first compound 0.8 µM, partner dose 0.1 µM) | 69.3 | 87.8 | 68.8 | 140 | 113 | 102 | 57.6 | 56.9 | 47.7 | 188
CC(C)C[C@H](NC(=O)[C@H](Cc1ccccc1)NC(=O)c1cnccn1)B(O)O [Bortezomib] + N.N.[Cl][Pt][Cl] [cisplatin] (first compound 0.001 µM, partner dose 1.6 µM) | 175 | 91.5 | 78.1 | 132 | 1280 | 134 | 324 | 345 | 91.1 | 56.1
C=CCNC1=C2C[C@@H](C)C[C@H](OC)[C@H](O)[C@@H](C)/C=C(\C)[C@H](OC(N)=O)[C@@H](OC)/C=C\C=C(/C)C(=O)NC(=CC1=O)C2=O [Tanespimycin] + C[As](C)SC[C@H](NC(=O)CC[C@H](N)C(=O)O)C(=O)NCC(=O)O [Darinaparsin] (first compound 0.002 µM, partner dose 0.4 µM) | 149 | 136 | 109 | 72.7 | 67.4 | 175 | 122 | 111 | 123 | 93.6
N.N.[Cl][Pt][Cl] [cisplatin] + C[C@]1(c2nc3c(C(N)=O)cccc3[nH]2)CCCN1 [Veliparib] (first compound 1.6 µM, partner dose 1.4 µM) | 79.5 | 171 | 153 | 113 | 138 | 132 | 176 | 99.5 | 92.8 | 62
N.N.[Cl][Pt][Cl] [cisplatin] + CCCS(=O)(=O)Nc1ccc(F)c(C(=O)c2c[nH]c3ncc(Cl)cc23)c1F [PLX4720] (first compound 1.6 µM, partner dose 0.08 µM) | 71 | 56.8 | 97.4 | 141 | 139 | 45.4 | 127 | 98.4 | 135 | 84.2
Cn1cc(C2=C(c3cn(C4CCN(Cc5ccccn5)CC4)c4ccccc34)C(=O)NC2=O)c2ccccc21 [Enzastaurin] + Clc1ccc(Nc2nnc(Cc3ccncc3)c3ccccc23)cc1 [vatalanib] (first compound 0.8 µM, partner dose 2 µM) | 77.9 | 87.6 | 145 | 148 | 85.9 | 106 | 131 | 171 | 41.2 | 116
Cn1cc(C2=C(c3cn(C4CCN(Cc5ccccn5)CC4)c4ccccc34)C(=O)NC2=O)c2ccccc21 [Enzastaurin] + Nc1ccn([C@@H]2O[C@H](CO)[C@@H](O)C2(F)F)c(=O)n1 [gemcitabine] (first compound 0.8 µM, partner dose 0.0004 µM) | 431 | 105 | 51.4 | 122 | 42.5 | 148 | 140 | 51.4 | 54.9 | 44
Cn1cc(C2=C(c3cn(C4CCN(Cc5ccccn5)CC4)c4ccccc34)C(=O)NC2=O)c2ccccc21 [Enzastaurin] + Cn1nnc2c(C(N)=O)ncn2c1=O [temozolomide] (first compound 0.8 µM, partner dose 2 µM) | 104 | 71.2 | 47.5 | 55.9 | 151 | 136 | 62.2 | 55.6 | 259 | 77.5
C[C@]12O[C@H](C[C@]1(O)CO)n1c3ccccc3c3c4c(c5c6ccccc6n2c5c31)CNC4=O [Lestaurtinib] + CS(=O)(=O)c1ccc(C(=O)Nc2ccc(Cl)c(-c3ccccn3)c2)c(Cl)c1 [vismodegib] (first compound 0.004 µM, partner dose 1 µM) | 107 | 167 | 85.2 | 92.1 | 103 | 91.3 | 132 | 234 | 87.8 | 211
C[C@]12O[C@H](C[C@]1(O)CO)n1c3ccccc3c3c4c(c5c6ccccc6n2c5c31)CNC4=O [Lestaurtinib] + Clc1ccc(Nc2nnc(Cc3ccncc3)c3ccccc23)cc1 [vatalanib] (first compound 0.004 µM, partner dose 2 µM) | 73.3 | 128 | 411 | 72.7 | 47.8 | 272 | 64.8 | 47.1 | 244 | 96.9
C[C@]12O[C@H](C[C@]1(O)CO)n1c3ccccc3c3c4c(c5c6ccccc6n2c5c31)CNC4=O [Lestaurtinib] + CCCS(=O)(=O)Nc1ccc(F)c(C(=O)c2c[nH]c3ncc(Cl)cc23)c1F [PLX4720] (first compound 0.004 µM, partner dose 0.08 µM) | 61.1 | 48.3 | 94.8 | 114 | 65.3 | 137 | 305 | 88 | 130 | 54.9
O=c1[nH]nc(Sc2ncc([N+](=O)[O-])s2)n1-c1ccc2c(c1)OCCO2 + N.N.[Cl][Pt][Cl] [cisplatin] (first compound 0.2 µM, partner dose 1.6 µM) | 95 | 29.1 | 34.2 | 85.3 | 89.9 | 52.7 | 58.6 | 43.3 | 119 | 39.3
CS(=O)(=O)CCNCc1ccc(-c2ccc3ncnc(Nc4ccc(OCc5cccc(F)c5)c(Cl)c4)c3c2)o1 [lapatinib] + C[As](C)SC[C@H](NC(=O)CC[C@H](N)C(=O)O)C(=O)NCC(=O)O [Darinaparsin] (first compound 0.8 µM, partner dose 0.4 µM) | 76.2 | 90.8 | 80.9 | 171 | 163 | 45.5 | 70.7 | 104 | 127 | 170
C[C@]12O[C@H](C[C@]1(O)CO)n1c3ccccc3c3c4c(c5c6ccccc6n2c5c31)CNC4=O [Lestaurtinib] + C[C@]1(c2nc3c(C(N)=O)cccc3[nH]2)CCCN1 [Veliparib] (first compound 0.004 µM, partner dose 1.4 µM) | 60.2 | 63.9 | 133 | 76.3 | 82.3 | 137 | 114 | 221 | 43.2 | 55.2
Cc1cn(-c2cc(NC(=O)c3ccc(C)c(Nc4nccc(-c5cccnc5)n4)c3)cc(C(F)(F)F)c2)cn1 [nilotinib] + C[C@]12O[C@H](C[C@]1(O)CO)n1c3ccccc3c3c4c(c5c6ccccc6n2c5c31)CNC4=O [Lestaurtinib] (first compound 0.2 µM, partner dose 0.004 µM) | 59.4 | 77.5 | 98.1 | 71.2 | 146 | 43.4 | 122 | 164 | 159 | 125
C[C@@H](Oc1cc(-c2cnn(C3CCNCC3)c2)cnc1N)c1c(Cl)ccc(F)c1Cl [Crizotinib] + C[As](C)SC[C@H](NC(=O)CC[C@H](N)C(=O)O)C(=O)NCC(=O)O [Darinaparsin] (first compound 0.2 µM, partner dose 0.4 µM) | 136 | 42.3 | 32.5 | 110 | 93.9 | 42.1 | 67.1 | 50.9 | 227 | 65.7
C[C@]12O[C@H](C[C@]1(O)CO)n1c3ccccc3c3c4c(c5c6ccccc6n2c5c31)CNC4=O [Lestaurtinib] + CC(C)C[C@H](NC(=O)[C@H](Cc1ccccc1)NC(=O)c1cnccn1)B(O)O [Bortezomib] (first compound 0.004 µM, partner dose 0.001 µM) | 138 | 119 | 44.7 | 152 | 1150 | 408 | 135 | 108 | 58.3 | 77.9

Single values from the list.
Value of Cn1cc(C2=C(c3cn(C4CCN(Cc5ccccn5)CC4)c4ccccc34)C(=O)NC2=O)c2ccccc21 [Enzastaurin] + Nc1ccn([C@@H]2O[C@H](CO)[C@@H](O)C2(F)F)c(=O)n1 [gemcitabine] (first compound 0.8 µM, partner dose 0.0004 µM) under cleaved PARP positive nuclei fraction (CBRC034) [%]: 431
Value of C[C@@H](Oc1cc(-c2cnn(C3CCNCC3)c2)cnc1N)c1c(Cl)ccc(F)c1Cl [Crizotinib] + C[As](C)SC[C@H](NC(=O)CC[C@H](N)C(=O)O)C(=O)NCC(=O)O [Darinaparsin] (first compound 0.2 µM, partner dose 0.4 µM) under cleaved PARP positive nuclei fraction (LOXIMVI) [%]: 227
